Patent publication US8575094B2 (Novacta Biosystems Limited, priority 2007, dated 2013)

Assay: general procedure: peptide synthesis; PyBOP / diisopropylethylamine; Fmoc-amino acid pentafluorophenyl ester / HOBt
Details: late stage modification step

Substance | step yield
Deoxy-Actagardine B [tris(hydroxymethyl)methylamine]monocarboxamide | 69%
Deoxy-Actagardine B N-[1-(1-methyl-4-piperidinyl)piperazine]monocarboxamide | 37%
Deoxy-Actagardine B N-[3-dimethylaminopropyl]monocarboxamide | 85%
Deoxy-Actagardine B [1-(3-dimethylaminopropyl)piperazine]monocarboxamide | 46%
